Reference: PubChem BioAssay AID1671195 (Yale University, 2021)

Test: 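Regulators of LDL receptor activity judged by labelled LDL uptake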 (primary screen)
System: human Huh7 hepatoma cells
Reagents: siRNA pool against human genes, 18 nM
Duration: about 2 to 2.5 days of knockdown, then 8 h LDL uptake
Challenge: DiI-labelled LDL at 30 µg/ml for 8 h, in lipoprotein-deficient serum medium
Detection: 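Per-cell DiI-LDL intensity by automated imaging; well means scaled to the plate median and given as a robust z-score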
Direction: robust z-score: higher = more LDL uptake after knockdown
Rule for the call: 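a gene counts as active if at least two replicate z-scores exceed ±2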
Shown is a random part of about 22,000 reagents tested. About 1,510 of all reagents (6.9%) count as active. 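Active includes knockdowns raising or lowering LDL uptake; positive z-scores mean more uptake, negative mean less.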 A number with no mark means an inactive call. Reagents against one gene are numbered here. Reagent sequences are not shown.

no.	Gene	reagent no.	robust z-score, replicate 1	robust z-score, replicate 2	robust z-score, replicate 3
1	STARD6 (StAR related lipid transfer domain containing 6)	1	1.06	1.83	0.739
2	OR1E2 (olfactory receptor family 1 subfamily E member 2)	1	0.15	0.667	-0.104
3	MRPS21 (mitochondrial ribosomal protein S21)	1	-1.69	-0.647	-0.616
4	ATF6B (activating transcription factor 6 beta)	1	-0.0118	-0.311	0.373
5	KIF25-AS1 (KIF25 antisense RNA 1)	1	0.48	0.93	0.193
6	FBXO8 (F-box protein 8)	1	1.31 (active)	2.58	3.04
7	CLEC17A (C-type lectin domain containing 17A)	1	-0.518	-0.629	-0.377
8	MEF2C (myocyte enhancer factor 2C)	1	1.11	0.904	1.03
9	GNB2 (G protein subunit beta 2)	1	1.4	1.91	1.85
10	MDN1 (midasin AAA ATPase 1)	1	1.11	1.31	1.52
11	CBY2 (chibby family member 2)	1	-0.322	-0.686	-0.0105
12	ZNF480 (zinc finger protein 480)	1	0.651	0.931	1.17
13	TRIM38 (tripartite motif containing 38)	1	-0.0994	-0.166	0.616
14	GNPDA1 (glucosamine-6-phosphate deaminase 1)	1	-1.34	-1.22	-1.07
15	FAM177A1 (family with sequence similarity 177 member A1)	1	3.28 (active)	1.97	1.75
16	SPPL2C (signal peptide peptidase like 2C)	1	2.55	1.37	1.56
17	SYNPR (synaptoporin)	1	0.426	0.237	0.146
18	WRN (WRN RecQ like helicase)	1	-1.21	-0.198	-0.188
19	HOOK1 (hook microtubule tethering protein 1)	1	1.17	-0.613	-1.26
20	ADAMDEC1 (ADAM like decysin 1)	1	-0.829	-1.27	-0.0955
21	KIAA0319	1	0.761	0.98	0.0224
22	SATB1 (SATB homeobox 1)	1	0.484	0.672	0.0368
23	LOC388480 (retired record)	1	3.26 (active)	2.5	1.96
24	PLG (plasminogen)	1	-1.46	-0.639	-1.18
25	KRTAP5-2 (keratin associated protein 5-2)	1	0.866	1.73	1.3
26	LLGL2 (LLGL scribble cell polarity complex component 2)	1	0.514	-0.00736	-0.665
27	LOC440384 (retired record)	1	2.63	1.89	1.58
28	OR8B4 (olfactory receptor family 8 subfamily B member 4)	1	0.639	0.46	0.418
29	GTPBP3 (GTP binding protein 3, mitochondrial)	1	-1.07	-1.58	-1.45
30	SCYL1 (SCY1 like pseudokinase 1)	1	0.476	-0.415	-1.02
31	TTI1 (TELO2 interacting protein 1)	1	-1.55	-1.17	-0.54
32	CRYBB1 (crystallin beta B1)	1	-0.583	0.87	-0.78
33	ARMH1 (armadillo like helical domain containing 1)	1	-0.0538	0.165	-0.0584
34	ATAD2 (ATPase family AAA domain containing 2)	1	-0.471	-0.301	0.152
35	LOC389803 (retired record)	1	0.411	0.399	0.209
36	NAV2-AS4 (NAV2 antisense RNA 4)	1	-0.453	-0.0828	-0.281
37	LOC391730 (retired record)	1	0.129	-0.254	-0.272
38	CHCHD10 (coiled-coil-helix-coiled-coil-helix domain containing 10)	1	-1.48	-1.35	-0.986
39	TRIM42 (tripartite motif containing 42)	1	0.675	-0.298	0.135
40	SIN3B (SIN3 transcription regulator family member B)	1	1.04	1.63	-0.181
41	LOC389048 (retired record)	1	0.0751	-0.0576	-0.215
42	CFAP20DC (CFAP20 domain containing)	1	-0.529	-0.736	-1.36
43	RPL5P18 (ribosomal protein L5 pseudogene 18)	1	-0.923	-0.554	-0.624
44	BBS10 (Bardet-Biedl syndrome 10)	1	0.745	0.146	0.379
45	BLOC1S1 (biogenesis of lysosomal organelles complex 1 subunit 1)	1	-0.667	-0.321	-0.424
46	BACH2 (BACH transcriptional regulator 2)	1	1.09	0.91	2.22
47	YOD1 (YOD1 deubiquitinase)	1	-1.73	-1.7	-1.26
48	DMRT2 (doublesex and mab-3 related transcription factor 2)	1	0.597	1.27	1
49	ZSCAN5B (zinc finger and SCAN domain containing 5B)	1	-0.523	-0.506	-0.376
50	MIGA1 (mitoguardin 1)	1	-0.839	-0.902	-0.399
51	URB1-DT (URB1 divergent transcript)	1	-0.0145	0.0867	0.545
52	LOC340477 (retired record)	1	-0.221	-0.121	-0.152
53	OR2B3 (olfactory receptor family 2 subfamily B member 3)	1	-0.86	-0.479	-0.498
54	LOC391047 (retired record)	1	-1.49	-1.26	-1.66
55	CEACAM19 (CEA cell adhesion molecule 19)	1	1.01 (active)	3.13	2.84
56	YWHAEP7	1	1.47	1.18	1.14
57	KHK (ketohexokinase)	1	1.04	1.14	1.97
58	HECTD4 (HECT domain E3 ubiquitin protein ligase 4)	1	0.542	0.309	-0.0248
59	HECTD4 (HECT domain E3 ubiquitin protein ligase 4)	2	-0.376	-0.238	-0.0599
60	GTF2E2 (general transcription factor IIE subunit 2)	1	0.234	0.898	0.722
61	SPATA17 (spermatogenesis associated 17)	1	-1.21	-0.109	0.00279
62	SMCO3 (single-pass membrane protein with coiled-coil domains 3)	1	-0.874	-1.41	-1.05
63	RFPL1 (ret finger protein like 1)	1	0.426	-0.756	-0.196
64	BCAP31 (B cell receptor associated protein 31)	1	-0.221	-0.956	-0.683
65	LOC400707 (retired record)	1	-1.14	-1.81	-1.11
66	PHC2 (polyhomeotic homolog 2)	1	-0.274	-0.664	0.162
67	DNAI4 (dynein axonemal intermediate chain 4)	1	-1.93	-1.99	-2
68	NAGS (N-acetylglutamate synthase)	1	0.417	0.729	0.849
69	EIF1AD	1	0.51	1.26	0.441
70	IFIT2 (interferon induced protein with tetratricopeptide repeats 2)	1	1.37	3.25	1.56
71	KDM5C (lysine demethylase 5C)	1	-1.15	-0.903	-1
72	C3orf70 (chromosome 3 open reading frame 70)	1	-0.443	0.00289	-0.0181
73	CACNG2 (calcium voltage-gated channel auxiliary subunit gamma 2)	1	-0.00116	1.27	0.401
74	RBM46 (RNA binding motif protein 46)	1	-0.794	-0.699	-0.415
75	PTBP2 (polypyrimidine tract binding protein 2)	1	-0.789	-0.398	-0.734
76	OR6C1 (olfactory receptor family 6 subfamily C member 1)	1	0.236	0.568	0.255
77	DNAH12 (dynein axonemal heavy chain 12)	1	-0.122	0.112	-0.295
78	DNAH12 (dynein axonemal heavy chain 12)	2	-1.48	-1.09	-1.3
79	ASIC2 (acid sensing ion channel subunit 2)	1	-0.669	-0.711	-0.513
80	GCFC2 (GC-rich sequence DNA-binding factor 2)	1	-0.00275	1.57	-0.725
81	TLR3 (toll like receptor 3)	1	-0.86	0.143	-1.47
82	LOC441604 (retired record)	1	1.42	0.802	0.618
83	NOTCH2 (notch receptor 2)	1	-1.38	-0.887	-1.4
84	LOC440728 (retired record)	1	0.837	1.94	0.752
85	PCDHA11 (protocadherin alpha 11)	1	1.41	1.52	1.03
86	TRABD2B (TraB domain containing 2B)	1	0.28	-0.107	-0.109
87	FGFBP3 (fibroblast growth factor binding protein 3)	1	0.0133	-1.27	-0.432

Reformatted: 12 of the entries above.
{"Gene":"TTI1 (TELO2 interacting protein 1)","reagent no.":1,"robust z-score, replicate 1":-1.55,"robust z-score, replicate 2":-1.17,"robust z-score, replicate 3":-0.54}
{"Gene":"CRYBB1 (crystallin beta B1)","reagent no.":1,"robust z-score, replicate 1":-0.583,"robust z-score, replicate 2":0.87,"robust z-score, replicate 3":-0.78}
{"Gene":"ARMH1 (armadillo like helical domain containing 1)","reagent no.":1,"robust z-score, replicate 1":-0.0538,"robust z-score, replicate 2":0.165,"robust z-score, replicate 3":-0.0584}
{"Gene":"ATAD2 (ATPase family AAA domain containing 2)","reagent no.":1,"robust z-score, replicate 1":-0.471,"robust z-score, replicate 2":-0.301,"robust z-score, replicate 3":0.152}
{"Gene":"LOC389803 (retired record)","reagent no.":1,"robust z-score, replicate 1":0.411,"robust z-score, replicate 2":0.399,"robust z-score, replicate 3":0.209}
{"Gene":"NAV2-AS4 (NAV2 antisense RNA 4)","reagent no.":1,"robust z-score, replicate 1":-0.453,"robust z-score, replicate 2":-0.0828,"robust z-score, replicate 3":-0.281}
{"Gene":"LOC391730 (retired record)","reagent no.":1,"robust z-score, replicate 1":0.129,"robust z-score, replicate 2":-0.254,"robust z-score, replicate 3":-0.272}
{"Gene":"CHCHD10 (coiled-coil-helix-coiled-coil-helix domain containing 10)","reagent no.":1,"robust z-score, replicate 1":-1.48,"robust z-score, replicate 2":-1.35,"robust z-score, replicate 3":-0.986}
{"Gene":"TRIM42 (tripartite motif containing 42)","reagent no.":1,"robust z-score, replicate 1":0.675,"robust z-score, replicate 2":-0.298,"robust z-score, replicate 3":0.135}
{"Gene":"SIN3B (SIN3 transcription regulator family member B)","reagent no.":1,"robust z-score, replicate 1":1.04,"robust z-score, replicate 2":1.63,"robust z-score, replicate 3":-0.181}
{"Gene":"LOC389048 (retired record)","reagent no.":1,"robust z-score, replicate 1":0.0751,"robust z-score, replicate 2":-0.0576,"robust z-score, replicate 3":-0.215}
{"Gene":"CFAP20DC (CFAP20 domain containing)","reagent no.":1,"robust z-score, replicate 1":-0.529,"robust z-score, replicate 2":-0.736,"robust z-score, replicate 3":-1.36}
